Test results taken from patent US20070128669A1, “Serum-free expansion of cells in culture” (Institute for Chemical Genomics, priority 2005, published 2007).
No constants are given. Whether binding was seen depends on the method and setting. In cells and extracts the contact can be indirect. Some results given as binding are weak or reduced against the parent protein; the word gives no strength.

Protein sequences, listed by entry. Tags and fused reporters are not part of them. Lines headed by an entry give the natural chain unless they say otherwise; changes in a name come on top.
UniProt P35222: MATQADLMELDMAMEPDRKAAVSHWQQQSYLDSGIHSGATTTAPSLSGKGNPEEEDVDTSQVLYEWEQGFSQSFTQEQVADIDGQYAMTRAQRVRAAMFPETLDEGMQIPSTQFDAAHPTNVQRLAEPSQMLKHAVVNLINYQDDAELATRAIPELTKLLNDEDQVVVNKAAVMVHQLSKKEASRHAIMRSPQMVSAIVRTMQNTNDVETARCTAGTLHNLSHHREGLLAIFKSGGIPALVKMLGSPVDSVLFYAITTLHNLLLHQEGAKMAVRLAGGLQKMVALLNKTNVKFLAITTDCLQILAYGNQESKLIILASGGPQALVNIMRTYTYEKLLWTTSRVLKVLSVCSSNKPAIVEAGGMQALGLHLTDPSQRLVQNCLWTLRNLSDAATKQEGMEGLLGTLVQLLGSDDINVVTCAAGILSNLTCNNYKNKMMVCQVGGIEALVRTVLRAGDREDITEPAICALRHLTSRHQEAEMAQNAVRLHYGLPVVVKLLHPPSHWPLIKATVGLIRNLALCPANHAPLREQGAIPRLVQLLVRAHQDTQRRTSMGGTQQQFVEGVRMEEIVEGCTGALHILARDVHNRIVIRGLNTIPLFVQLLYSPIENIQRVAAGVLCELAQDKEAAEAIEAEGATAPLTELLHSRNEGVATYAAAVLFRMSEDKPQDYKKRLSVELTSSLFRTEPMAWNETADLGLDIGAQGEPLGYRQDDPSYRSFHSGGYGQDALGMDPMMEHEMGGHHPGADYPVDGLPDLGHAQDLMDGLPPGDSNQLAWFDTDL
UniProt Q09472: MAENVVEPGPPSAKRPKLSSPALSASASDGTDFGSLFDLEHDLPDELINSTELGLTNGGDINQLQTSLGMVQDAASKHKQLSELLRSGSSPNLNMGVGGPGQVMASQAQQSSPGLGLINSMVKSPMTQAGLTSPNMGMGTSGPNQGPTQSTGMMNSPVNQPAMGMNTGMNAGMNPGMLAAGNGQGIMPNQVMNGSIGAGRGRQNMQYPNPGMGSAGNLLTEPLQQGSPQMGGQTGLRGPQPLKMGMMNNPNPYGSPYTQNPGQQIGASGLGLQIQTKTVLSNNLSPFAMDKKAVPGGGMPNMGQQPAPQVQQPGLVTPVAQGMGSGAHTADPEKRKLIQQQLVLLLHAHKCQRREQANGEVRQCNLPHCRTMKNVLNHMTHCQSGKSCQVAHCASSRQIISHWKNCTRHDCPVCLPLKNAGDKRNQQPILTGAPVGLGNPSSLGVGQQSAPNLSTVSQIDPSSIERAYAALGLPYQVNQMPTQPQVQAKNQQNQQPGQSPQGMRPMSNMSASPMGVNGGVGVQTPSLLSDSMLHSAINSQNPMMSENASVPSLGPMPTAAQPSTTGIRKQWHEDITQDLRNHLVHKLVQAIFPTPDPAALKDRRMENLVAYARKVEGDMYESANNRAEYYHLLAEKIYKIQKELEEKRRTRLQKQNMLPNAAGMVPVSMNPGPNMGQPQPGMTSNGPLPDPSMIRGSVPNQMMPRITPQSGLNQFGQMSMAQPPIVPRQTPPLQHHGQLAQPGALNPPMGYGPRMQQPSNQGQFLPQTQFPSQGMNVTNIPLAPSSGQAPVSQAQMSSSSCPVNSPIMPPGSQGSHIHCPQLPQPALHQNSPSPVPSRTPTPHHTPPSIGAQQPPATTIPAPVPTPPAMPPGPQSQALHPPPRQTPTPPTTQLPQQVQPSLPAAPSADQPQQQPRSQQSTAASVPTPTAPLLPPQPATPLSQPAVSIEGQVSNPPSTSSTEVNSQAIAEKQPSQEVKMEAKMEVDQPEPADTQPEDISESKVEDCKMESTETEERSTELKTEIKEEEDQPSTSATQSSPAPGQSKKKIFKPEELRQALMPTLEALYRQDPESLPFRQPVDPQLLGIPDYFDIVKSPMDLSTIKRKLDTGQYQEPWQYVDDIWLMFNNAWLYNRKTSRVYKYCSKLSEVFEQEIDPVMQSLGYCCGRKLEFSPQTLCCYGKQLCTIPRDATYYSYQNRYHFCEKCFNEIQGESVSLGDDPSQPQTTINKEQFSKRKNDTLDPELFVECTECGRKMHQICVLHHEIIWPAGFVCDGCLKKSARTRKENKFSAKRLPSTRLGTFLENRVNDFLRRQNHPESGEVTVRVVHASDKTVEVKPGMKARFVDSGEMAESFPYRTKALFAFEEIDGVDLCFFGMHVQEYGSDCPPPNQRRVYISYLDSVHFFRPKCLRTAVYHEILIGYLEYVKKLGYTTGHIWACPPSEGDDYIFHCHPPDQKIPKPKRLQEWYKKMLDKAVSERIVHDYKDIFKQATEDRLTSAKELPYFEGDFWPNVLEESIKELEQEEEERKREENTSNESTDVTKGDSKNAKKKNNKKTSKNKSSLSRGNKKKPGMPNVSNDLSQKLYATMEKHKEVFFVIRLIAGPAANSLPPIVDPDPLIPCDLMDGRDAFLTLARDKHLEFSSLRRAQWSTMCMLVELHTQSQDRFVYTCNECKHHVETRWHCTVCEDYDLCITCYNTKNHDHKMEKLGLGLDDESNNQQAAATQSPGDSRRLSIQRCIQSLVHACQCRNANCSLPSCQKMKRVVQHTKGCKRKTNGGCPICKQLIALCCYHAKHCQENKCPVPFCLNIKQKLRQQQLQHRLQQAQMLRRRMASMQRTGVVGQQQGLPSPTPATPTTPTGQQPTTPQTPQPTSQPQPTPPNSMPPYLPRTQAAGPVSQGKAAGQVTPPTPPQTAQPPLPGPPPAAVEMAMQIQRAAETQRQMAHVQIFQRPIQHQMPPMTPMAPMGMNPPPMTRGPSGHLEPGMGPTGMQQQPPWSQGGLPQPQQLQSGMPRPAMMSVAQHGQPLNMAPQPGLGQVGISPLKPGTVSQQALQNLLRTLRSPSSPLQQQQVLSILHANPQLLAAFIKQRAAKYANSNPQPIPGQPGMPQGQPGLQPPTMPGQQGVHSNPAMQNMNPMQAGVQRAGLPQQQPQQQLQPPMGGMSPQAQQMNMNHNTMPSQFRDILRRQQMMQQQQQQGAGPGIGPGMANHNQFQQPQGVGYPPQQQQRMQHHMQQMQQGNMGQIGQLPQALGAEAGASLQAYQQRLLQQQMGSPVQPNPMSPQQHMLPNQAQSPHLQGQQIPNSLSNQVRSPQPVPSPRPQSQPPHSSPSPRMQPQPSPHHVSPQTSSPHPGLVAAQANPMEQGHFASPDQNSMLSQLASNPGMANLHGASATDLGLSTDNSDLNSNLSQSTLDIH

Columns and labels:
[1] = molecular target: β-catenin (Homo sapiens (Human)) (UniProt P35222); test: co-immunoprecipitation of β-catenin/p300 complexes from P19 lysates after adding in vitro phosphorylated p300 (1-110aa)
[2] = molecular target: β-catenin (Homo sapiens (Human)) (UniProt P35222); test: co-immunoprecipitation from P19 lysates (summary of Example 6)
[3] = molecular target: β-catenin (Homo sapiens (Human)) (UniProt P35222); test: co-immunoprecipitation via HA-tag of in vitro phosphorylated p300 (1-110 aa) mixed with P19 lysates, western blot (FIG. 4C lane 2)
[4] = molecular target: β-catenin (Homo sapiens (Human)) (UniProt P35222); test: co-immunoprecipitation via HA-tag of recombinant p300 (1-110 aa) mixed with P19 lysates, western blot (FIG. 4C)

| binding [1] | binding [2] | binding [3] | binding [4] | Substance |
| --- | --- | --- | --- | --- |
| binds | binds | binds |  | PKCα phosphorylated p300 (1-110 aa) fused to an HA-tag (from UniProt Q09472 1-110) |
|  |  |  | binds | Recombinant p300 (1-110 aa) fused to an HA-tag (from UniProt Q09472 1-110) |
